Experiment [1] deals with SPOCD1-ΔSPIN1 (SPOCD1 with eight amino acids mutated to alanine), HA epitope-tagged (mouse) (UniProt B1ASB6). Description: co-IP; HEK293T co-transfected; lysis in IP buffer (150 mM KCl, 2.5 mM MgCl2, 0.5% Triton X-100, 50 mM Tris-HCl pH 8, benzonase); anti-HA beads 1 h at 4 °C; western blot. A general note: In western blotting, separated proteins are transferred to a membrane and probed.

By UniProt entry, the sequences of proteins in these tests, tags left out. Where a name states a change or a piece, a line headed by the entry shows the natural chain unless it says otherwise.
UniProt B1ASB6: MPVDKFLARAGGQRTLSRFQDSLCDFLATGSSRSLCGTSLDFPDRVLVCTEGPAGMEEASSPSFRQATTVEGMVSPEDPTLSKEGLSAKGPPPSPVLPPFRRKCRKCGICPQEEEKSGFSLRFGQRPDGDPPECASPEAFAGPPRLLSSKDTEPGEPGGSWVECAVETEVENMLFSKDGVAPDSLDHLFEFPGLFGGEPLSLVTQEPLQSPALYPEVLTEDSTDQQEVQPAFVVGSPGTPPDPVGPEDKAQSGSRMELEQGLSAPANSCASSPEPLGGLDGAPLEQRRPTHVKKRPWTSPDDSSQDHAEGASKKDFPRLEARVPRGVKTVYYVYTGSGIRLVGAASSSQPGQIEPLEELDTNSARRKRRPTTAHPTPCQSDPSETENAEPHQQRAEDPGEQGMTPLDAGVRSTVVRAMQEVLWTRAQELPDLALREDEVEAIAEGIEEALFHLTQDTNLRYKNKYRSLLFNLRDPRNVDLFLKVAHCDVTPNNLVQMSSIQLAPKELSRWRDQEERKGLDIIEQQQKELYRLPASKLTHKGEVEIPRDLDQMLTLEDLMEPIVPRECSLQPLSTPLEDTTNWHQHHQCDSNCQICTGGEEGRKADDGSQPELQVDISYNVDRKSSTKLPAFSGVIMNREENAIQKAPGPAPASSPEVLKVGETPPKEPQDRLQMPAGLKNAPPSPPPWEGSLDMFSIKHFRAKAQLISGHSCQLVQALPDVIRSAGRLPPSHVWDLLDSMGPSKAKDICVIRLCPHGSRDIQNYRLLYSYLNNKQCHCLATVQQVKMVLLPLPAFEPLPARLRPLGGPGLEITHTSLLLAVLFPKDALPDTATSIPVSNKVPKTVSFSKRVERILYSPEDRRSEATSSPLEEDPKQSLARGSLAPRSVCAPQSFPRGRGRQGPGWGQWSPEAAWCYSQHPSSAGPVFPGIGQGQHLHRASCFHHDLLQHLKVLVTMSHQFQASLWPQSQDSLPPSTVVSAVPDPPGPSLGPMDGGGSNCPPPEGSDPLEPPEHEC
UniProt Q9CWR8: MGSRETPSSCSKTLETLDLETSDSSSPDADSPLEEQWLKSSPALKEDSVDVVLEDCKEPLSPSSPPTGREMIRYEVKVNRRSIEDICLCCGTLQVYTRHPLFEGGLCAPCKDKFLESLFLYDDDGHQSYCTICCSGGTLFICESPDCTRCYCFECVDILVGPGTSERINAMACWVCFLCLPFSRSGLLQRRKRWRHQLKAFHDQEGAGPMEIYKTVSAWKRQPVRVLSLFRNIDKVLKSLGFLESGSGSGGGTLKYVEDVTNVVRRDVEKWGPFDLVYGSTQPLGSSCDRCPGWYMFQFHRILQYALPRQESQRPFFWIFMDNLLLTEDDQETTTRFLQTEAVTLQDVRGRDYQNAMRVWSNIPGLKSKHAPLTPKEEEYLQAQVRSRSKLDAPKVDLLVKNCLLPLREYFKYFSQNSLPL
UniProt Q61142: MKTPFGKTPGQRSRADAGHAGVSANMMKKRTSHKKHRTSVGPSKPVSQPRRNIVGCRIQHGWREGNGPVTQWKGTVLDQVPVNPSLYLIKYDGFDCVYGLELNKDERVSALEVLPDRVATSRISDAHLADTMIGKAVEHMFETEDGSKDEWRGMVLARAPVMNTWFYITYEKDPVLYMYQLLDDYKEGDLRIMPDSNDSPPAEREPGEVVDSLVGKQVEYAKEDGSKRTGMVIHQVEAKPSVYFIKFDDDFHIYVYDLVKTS

In experiment [2] the target is Xenopus tropicalis SPOCD1 fragment (amino acids 1–229), GST-tagged (Xenopus tropicalis). Description: pull-down; co-precipitation of recombinant proteins, Coomassie gel, n = 3; both purified.

These are yes or no findings as the source states them, for the method shown. Binding seen in cells or lysates may run through a third protein. A result given as binding can be weak or reduced; the word gives no strength.

On to “FLAG-tagged DNMT3L (from UniProt Q9CWR8 1-421)”, for which, in experiment [1], the binding result is listed as “binds”. Turning to “SPIN1 (SPINDLIN1), co-expressed in HEK cells (from UniProt Q61142 1-262)”, the binding entry in experiment [1] is given as “no binding”. As for “mouse SPIN1 (amino acids 49–262), recombinant, His tag cleaved (from UniProt Q61142 49-262) (domain or fragment)”, in experiment [2], the binding entry was “binds”.
